Measured values from patent US11903956B2, “Compositions and products for infectious or inflammatory diseases or conditions” (B&H BIOTECHNOLOGIES, LLC, priority 2013, dated 2024).
At least one structure is not confirmed: it was looked up by name or label, or the drawing left a doubt.

Test system: diarrhea of weaning piglets
Assay: Prevention of diarrhea of weaning piglets with formulas as feed additives
Type: in vivo

CC1COc2c(N3CCN(C)CC3)c(F)cc3c(=O)c(C(=O)O)cn1c23 (stereo not shown) [ofloxacin] was tested. Which “outcome in words (appearance, diarrhea severity, growth)” value did it give?
Its value is “grew slowly, looks smaller and not healthy”.
